Laboratory results from the supplement of paper PMC12067093, “Discovery and optimisation of a covalent ligand for TRIM25 and its application to targeted protein ubiquitination” (Chemical Science, 2025).
The list shows a part of the results.

Amino acid sequences for entries named in this document (tags omitted). A change or cut given only in a name is not applied to a line headed by its entry.
UniProt Q8TB03: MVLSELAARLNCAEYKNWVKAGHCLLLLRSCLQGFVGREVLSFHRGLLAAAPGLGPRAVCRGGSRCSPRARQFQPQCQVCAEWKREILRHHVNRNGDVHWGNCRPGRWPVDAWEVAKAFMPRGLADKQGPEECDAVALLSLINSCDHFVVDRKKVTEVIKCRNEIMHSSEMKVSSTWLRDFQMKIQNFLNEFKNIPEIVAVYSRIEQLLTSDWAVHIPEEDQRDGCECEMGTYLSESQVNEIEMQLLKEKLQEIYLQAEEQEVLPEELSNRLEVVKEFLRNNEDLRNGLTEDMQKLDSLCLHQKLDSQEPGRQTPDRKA
UniProt P53634: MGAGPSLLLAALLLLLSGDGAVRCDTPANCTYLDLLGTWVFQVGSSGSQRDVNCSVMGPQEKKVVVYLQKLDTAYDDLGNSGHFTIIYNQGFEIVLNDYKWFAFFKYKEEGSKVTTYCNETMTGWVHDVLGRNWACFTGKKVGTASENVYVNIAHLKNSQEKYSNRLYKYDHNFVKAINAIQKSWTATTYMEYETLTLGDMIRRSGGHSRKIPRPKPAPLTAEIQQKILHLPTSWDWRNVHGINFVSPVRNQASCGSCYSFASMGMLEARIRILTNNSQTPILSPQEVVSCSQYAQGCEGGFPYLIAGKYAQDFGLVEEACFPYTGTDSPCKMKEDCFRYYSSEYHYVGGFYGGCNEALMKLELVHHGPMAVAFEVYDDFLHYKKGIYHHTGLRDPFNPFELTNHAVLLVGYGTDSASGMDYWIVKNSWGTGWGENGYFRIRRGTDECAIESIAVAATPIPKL
UniProt P07339: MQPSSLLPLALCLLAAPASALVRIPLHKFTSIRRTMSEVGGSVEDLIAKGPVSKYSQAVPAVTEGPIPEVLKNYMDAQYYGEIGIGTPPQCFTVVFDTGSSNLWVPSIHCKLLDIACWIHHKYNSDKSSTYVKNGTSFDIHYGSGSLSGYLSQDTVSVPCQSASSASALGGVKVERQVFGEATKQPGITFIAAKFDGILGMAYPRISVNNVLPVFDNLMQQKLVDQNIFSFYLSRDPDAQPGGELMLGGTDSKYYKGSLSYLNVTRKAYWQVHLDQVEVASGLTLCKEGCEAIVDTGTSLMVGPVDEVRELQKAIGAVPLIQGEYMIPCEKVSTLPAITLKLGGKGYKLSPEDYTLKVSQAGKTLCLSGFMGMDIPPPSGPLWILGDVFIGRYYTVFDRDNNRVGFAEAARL
UniProt Q13619, whole entry, looked up: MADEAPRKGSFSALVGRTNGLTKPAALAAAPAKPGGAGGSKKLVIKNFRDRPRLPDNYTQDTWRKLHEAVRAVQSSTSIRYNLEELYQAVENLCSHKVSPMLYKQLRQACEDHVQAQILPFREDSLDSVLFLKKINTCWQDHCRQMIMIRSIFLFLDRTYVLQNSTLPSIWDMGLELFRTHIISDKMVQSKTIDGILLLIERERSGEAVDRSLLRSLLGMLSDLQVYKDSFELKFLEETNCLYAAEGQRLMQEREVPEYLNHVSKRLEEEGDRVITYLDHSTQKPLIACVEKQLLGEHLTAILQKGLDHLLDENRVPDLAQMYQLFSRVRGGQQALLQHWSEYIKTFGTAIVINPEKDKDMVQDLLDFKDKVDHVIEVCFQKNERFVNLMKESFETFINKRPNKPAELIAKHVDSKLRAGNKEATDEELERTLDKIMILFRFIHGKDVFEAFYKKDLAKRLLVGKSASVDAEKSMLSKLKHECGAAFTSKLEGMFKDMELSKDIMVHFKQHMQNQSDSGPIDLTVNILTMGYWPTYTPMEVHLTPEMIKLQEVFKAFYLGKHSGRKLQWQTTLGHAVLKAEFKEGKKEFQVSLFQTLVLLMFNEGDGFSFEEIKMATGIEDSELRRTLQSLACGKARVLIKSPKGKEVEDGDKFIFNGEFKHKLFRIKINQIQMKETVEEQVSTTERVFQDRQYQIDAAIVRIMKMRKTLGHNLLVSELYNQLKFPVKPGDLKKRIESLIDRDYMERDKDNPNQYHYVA
UniProt P17812: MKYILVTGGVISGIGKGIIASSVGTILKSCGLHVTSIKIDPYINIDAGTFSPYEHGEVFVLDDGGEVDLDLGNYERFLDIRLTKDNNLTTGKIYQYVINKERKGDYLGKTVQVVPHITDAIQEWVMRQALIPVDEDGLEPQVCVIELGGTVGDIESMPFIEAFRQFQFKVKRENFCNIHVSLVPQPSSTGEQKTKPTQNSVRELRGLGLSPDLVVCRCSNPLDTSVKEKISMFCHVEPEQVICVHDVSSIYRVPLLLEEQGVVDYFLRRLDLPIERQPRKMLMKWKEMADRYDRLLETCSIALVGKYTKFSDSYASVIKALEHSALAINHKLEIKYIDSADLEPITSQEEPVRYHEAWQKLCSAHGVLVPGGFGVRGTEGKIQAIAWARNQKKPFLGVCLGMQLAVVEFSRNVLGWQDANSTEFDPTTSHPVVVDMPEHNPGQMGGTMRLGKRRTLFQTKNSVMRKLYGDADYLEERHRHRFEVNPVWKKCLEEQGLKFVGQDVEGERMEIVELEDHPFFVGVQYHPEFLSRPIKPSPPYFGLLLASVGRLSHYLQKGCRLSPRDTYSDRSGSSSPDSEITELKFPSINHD
UniProt Q9UJU6: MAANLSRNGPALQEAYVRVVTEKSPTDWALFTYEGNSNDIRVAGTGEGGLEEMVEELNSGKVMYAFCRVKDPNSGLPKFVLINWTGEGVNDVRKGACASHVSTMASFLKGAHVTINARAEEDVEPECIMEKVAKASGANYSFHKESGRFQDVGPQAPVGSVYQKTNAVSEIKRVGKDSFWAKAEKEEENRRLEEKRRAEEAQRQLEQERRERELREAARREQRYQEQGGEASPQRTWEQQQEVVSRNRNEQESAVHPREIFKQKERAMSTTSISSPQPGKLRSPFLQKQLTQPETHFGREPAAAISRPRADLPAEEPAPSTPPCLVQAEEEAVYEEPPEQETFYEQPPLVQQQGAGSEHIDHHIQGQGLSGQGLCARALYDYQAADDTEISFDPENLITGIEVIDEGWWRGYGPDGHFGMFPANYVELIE
UniProt Q7L576: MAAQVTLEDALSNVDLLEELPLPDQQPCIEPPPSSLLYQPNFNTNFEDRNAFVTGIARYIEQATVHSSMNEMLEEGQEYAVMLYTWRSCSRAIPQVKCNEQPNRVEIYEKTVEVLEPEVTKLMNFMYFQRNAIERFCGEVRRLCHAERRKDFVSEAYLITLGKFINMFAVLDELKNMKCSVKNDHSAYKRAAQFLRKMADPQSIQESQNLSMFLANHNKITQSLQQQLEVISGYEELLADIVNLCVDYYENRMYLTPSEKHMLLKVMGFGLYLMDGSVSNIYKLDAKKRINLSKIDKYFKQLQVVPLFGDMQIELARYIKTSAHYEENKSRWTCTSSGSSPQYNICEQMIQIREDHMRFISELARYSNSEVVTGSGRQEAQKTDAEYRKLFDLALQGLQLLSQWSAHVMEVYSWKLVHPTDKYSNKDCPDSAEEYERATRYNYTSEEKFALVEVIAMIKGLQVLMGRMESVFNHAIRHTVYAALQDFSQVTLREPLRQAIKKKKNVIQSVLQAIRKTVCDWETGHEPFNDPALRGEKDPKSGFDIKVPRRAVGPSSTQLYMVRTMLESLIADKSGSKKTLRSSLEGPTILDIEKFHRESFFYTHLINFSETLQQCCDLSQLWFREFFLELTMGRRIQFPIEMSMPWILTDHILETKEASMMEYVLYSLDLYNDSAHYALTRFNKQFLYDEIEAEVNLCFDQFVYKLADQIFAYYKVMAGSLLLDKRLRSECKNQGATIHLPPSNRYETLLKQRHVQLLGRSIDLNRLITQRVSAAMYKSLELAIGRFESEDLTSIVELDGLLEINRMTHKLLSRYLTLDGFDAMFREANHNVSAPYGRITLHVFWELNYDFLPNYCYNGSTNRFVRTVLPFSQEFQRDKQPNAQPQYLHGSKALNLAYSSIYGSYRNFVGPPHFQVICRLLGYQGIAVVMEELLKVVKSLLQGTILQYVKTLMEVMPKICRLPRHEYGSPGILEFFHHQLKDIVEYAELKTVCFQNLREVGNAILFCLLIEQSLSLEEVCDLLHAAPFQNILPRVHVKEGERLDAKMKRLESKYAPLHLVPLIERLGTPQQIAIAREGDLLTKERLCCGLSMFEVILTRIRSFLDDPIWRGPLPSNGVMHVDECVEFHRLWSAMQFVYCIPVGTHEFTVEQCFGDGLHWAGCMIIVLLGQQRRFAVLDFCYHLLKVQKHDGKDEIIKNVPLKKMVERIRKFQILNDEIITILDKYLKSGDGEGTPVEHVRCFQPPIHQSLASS
UniProt Q14999: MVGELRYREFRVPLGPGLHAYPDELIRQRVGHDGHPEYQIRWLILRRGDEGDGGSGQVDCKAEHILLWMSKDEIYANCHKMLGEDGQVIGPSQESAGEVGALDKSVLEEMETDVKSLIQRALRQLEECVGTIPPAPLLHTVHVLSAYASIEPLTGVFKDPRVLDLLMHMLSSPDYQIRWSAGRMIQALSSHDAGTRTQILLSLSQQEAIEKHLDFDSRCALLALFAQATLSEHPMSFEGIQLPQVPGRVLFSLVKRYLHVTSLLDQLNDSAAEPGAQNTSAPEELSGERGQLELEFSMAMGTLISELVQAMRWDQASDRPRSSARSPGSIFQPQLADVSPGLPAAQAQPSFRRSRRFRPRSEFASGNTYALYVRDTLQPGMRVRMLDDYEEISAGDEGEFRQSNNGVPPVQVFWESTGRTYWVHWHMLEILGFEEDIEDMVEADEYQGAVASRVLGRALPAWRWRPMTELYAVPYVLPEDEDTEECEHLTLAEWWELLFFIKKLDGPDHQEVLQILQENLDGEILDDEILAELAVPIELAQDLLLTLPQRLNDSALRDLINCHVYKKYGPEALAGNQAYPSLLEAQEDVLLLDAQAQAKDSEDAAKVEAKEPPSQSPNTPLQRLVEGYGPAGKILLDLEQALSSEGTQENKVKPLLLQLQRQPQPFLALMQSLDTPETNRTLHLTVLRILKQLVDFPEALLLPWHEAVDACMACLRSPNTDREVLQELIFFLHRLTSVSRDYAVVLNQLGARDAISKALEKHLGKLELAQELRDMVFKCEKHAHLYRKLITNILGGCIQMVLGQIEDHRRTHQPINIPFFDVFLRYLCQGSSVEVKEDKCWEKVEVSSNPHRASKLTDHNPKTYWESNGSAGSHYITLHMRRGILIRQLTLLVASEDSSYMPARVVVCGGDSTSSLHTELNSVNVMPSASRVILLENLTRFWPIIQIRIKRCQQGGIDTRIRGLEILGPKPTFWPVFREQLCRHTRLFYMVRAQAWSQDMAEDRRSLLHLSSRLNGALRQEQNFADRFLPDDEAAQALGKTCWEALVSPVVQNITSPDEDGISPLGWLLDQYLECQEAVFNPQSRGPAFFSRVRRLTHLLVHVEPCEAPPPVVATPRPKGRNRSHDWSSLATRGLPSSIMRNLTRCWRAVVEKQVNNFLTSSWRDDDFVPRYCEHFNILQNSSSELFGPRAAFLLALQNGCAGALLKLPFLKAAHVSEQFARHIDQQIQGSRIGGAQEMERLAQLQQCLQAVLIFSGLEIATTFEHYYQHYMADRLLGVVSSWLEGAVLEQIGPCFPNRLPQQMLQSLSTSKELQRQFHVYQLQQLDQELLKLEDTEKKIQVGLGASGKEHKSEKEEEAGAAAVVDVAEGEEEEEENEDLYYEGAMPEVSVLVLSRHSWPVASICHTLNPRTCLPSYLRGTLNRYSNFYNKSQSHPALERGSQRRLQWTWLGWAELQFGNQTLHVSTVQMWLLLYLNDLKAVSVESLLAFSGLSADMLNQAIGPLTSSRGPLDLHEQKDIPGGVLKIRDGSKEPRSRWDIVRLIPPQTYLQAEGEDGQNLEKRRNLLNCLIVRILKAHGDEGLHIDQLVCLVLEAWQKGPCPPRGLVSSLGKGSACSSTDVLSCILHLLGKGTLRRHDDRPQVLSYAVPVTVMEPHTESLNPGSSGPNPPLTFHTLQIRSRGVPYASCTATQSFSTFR
UniProt Q5TAQ9: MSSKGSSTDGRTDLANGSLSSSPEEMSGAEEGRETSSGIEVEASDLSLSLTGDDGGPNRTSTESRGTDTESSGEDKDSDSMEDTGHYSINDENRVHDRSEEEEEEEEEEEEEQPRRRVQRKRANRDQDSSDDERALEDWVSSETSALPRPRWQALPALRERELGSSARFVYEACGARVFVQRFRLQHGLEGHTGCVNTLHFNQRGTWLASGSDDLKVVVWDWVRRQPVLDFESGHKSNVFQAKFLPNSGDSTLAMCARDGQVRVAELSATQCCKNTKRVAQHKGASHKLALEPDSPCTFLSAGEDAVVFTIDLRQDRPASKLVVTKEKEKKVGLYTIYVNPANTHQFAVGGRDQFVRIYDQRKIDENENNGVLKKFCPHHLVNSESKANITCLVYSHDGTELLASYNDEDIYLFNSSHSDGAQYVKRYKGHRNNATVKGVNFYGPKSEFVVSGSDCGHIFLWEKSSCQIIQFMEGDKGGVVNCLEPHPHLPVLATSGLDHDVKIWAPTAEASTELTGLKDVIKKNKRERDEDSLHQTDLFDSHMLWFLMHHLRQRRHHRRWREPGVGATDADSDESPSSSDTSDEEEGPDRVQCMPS

Compound: CC1Cc2ccccc2N1C(=O)C1CCCN(C1)C(=O)CCl (mixture of isomers) [TRIM25 ligand 11 (diastereomer mixture)]
Experiment: probe-labelled cysteine peptide fold change vs DMSO (competition) (log2 fold change); higher = less target engagement (more negative = stronger competition)
Conditions: THP-1, incubation time: 4 h
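Note: competitive chemoproteomic profiling in live THP-1 cells with an iodoacetamide desthiobiotin (IA-DTB) probe, comparing probe-labelled peptide intensities in compound-treated cells against DMSO-treated controls.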

Row | Target | probe-labelled cysteine peptide fold change (10 µM) | probe-labelled cysteine peptide fold change (50 µM)
1 | CTSZ_Q9UBR2_164_DQECDK (UniProt Q9UBR2) | -0.0808 | -0.0718
2 | CXorf38_Q8TB03_133+145_QGPEECDAVALLSLINSCDHFVVDRK (UniProt Q8TB03) | 0.127 | 0.294
3 | CTSC_P53634_355_YYSSEYHYVGGFYGGCNEALMK (UniProt P53634) | 0.0557 | -0.136
4 | CXorf38_Q8TB03_133_QGPEECDAVALLSLINSCDHFVVDRK (UniProt Q8TB03) | 0.416 | 0.18
5 | CYB5R3_P00387_204_DPDDHTVCHLLFANQTEK (UniProt P00387) | -0.00817 | -0.00425
6 | DAXX_Q9UER7_131_LYVYINELCTVLK (UniProt Q9UER7) | 0.0969 | -0.159
7 | DCTN1_Q14203_830_MPGTDAPGIPAALAFGPQVSDTLLDCR (UniProt Q14203) | 0.37 | 0.305
8 | CTSD_P07339_329_AIGAVPLIQGEYMIPCEK (UniProt P07339) | -0.137 | -0.296
9 | CUL4A_Q13619_289_RLEEEGDRVITYLDHSTQKPLIACVEK (UniProt Q13619) | -0.396 | -0.269
10 | CTPS1_P17812_218_CSNPLDTSVK (UniProt P17812) | 0.0718 | 0.108
11 | CWC22_Q9HCG8_497_ELCNMILDCCAQQR (UniProt Q9HCG8) | -0.0492 | 0.00266
12 | DCAF15_Q66K64_211_AHPGDPNAQCLR (UniProt Q66K64) | 0.202 | 0.268
13 | CTSB_P07858_93_EQWPQCPTIK (UniProt P07858) | -0.026 | -0.172
14 | DBT_P11182_279_IPHFGYCDEIDLTELVK (UniProt P11182) | 0.0359 | -0.0407
15 | CXorf38_Q8TB03_24_AGHCLLLLR (UniProt Q8TB03) | -0.198 | -0.0361
16 | CYLD_Q9NQC7_252_VGETIESGTVIFCDVLPGK (UniProt Q9NQC7) | 0.00286 | -0.0418
17 | DBNL_Q9UJU6_97_KGACASHVSTMASFLK (UniProt Q9UJU6) | -0.0713 | -0.568
18 | CXXC1_Q9P0U4_175_MCGECEACR (UniProt Q9P0U4) | -0.0677 | 0.209
19 | DBR1_Q9UK59_9_VAVAGCCHGELDK (UniProt Q9UK59) | -0.029 | 0.0267
20 | DAZAP1_Q96EP5_124_IFVGGIPHNCGETELREYFK (UniProt Q96EP5) | -0.399 | -0.226
21 | CXXC1_Q9P0U4_486_QQAVREDEESNEGDSDDTDLQIFCVSCGHPINPR (UniProt Q9P0U4) | 0.224 | -0.209

Row | Target | probe-labelled cysteine peptide fold change (10 µM) | probe-labelled cysteine peptide fold change (50 µM)
22 | CYFIP1_Q7L576_428_DCPDSAEEYER (UniProt Q7L576) | 0.0662 | 0.0256
23 | DAZAP1_Q96EP5_63_FKDPNCVGTVLASR (UniProt Q96EP5) | 0.11 | 0.17
24 | DCP2_Q8IU60_140_VNKEEAPHDCAAR (UniProt Q8IU60) | -0.229 | -0.311
25 | CTSB_P07858_105_EIRDQGSCGSCWAFGAVEAISDR (UniProt P07858) | -0.361 | -0.29
26 | CTSB_P07858_108_DQGSCGSCWAFGAVEAISDR (UniProt P07858) | 0.0107 | -0.0929
27 | CUL5_Q93034_265_RECNSVEALMECCVNALVTSFK (UniProt Q93034) | 0.105 | 0.221
28 | CTSB_P07858_211_ICEPGYSPTYK (UniProt P07858) | -0.112 | -0.138
29 | DAZAP1_Q96EP5_63_DPNCVGTVLASRPHTLDGR (UniProt Q96EP5) | 0.0236 | 0.116
30 | CTSC_P53634_448_GTDECAIESIAVAATPIPK (UniProt P53634) | 0.0258 | -0.283
31 | CXorf38_Q8TB03_133_QGPEECDAVALLSLINSCDHFVVDR (UniProt Q8TB03) | -0.104 | 0.0444
32 | DCTD_P32321_60_IVGIGYNGMPNGCSDDVLPWR (UniProt P32321) | -0.11 | 0.0873
33 | CTU2_Q2VPK5_457_REDPQACIEEQLCYSCR (UniProt Q2VPK5) | -0.0571 | 0.0269
34 | CUL7_Q14999_952_CQQGGIDTR (UniProt Q14999) | -0.0323 | -0.0161
35 | CTPS2_Q9NRF8_313_DCYASVFK (UniProt Q9NRF8) | 0.228 | 0.122
36 | CUL7_Q14999_1405_HSWPVASICHTLNPR (UniProt Q14999) | -0.0956 | 0.0337
37 | DCAF10_Q5QP82_412_NSLEVVTPEVLGESDHGNCITSLQLHPK (UniProt Q5QP82) | 0.152 | -0.291
38 | DCTN1_Q14203_893_QSCNILISTMNK (UniProt Q14203) | 0.0153 | 0.141
39 | CUL7_Q14999_1201_AAFLLALQNGCAGALLK (UniProt Q14999) | -0.304 | -0.245
40 | CUL4B_Q13620_730_KLQWQSTLGHCVLK (UniProt Q13620) | -0.0966 | 0.0454
41 | CXXC1_Q9P0U4_566_VPADEVCGCPLVR (UniProt Q9P0U4) | 0.235 | 0.11
42 | DAZAP1_Q96EP5_124_IFVGGIPHNCGETELR (UniProt Q96EP5) | 0.128 | 0.188

Row | Target | probe-labelled cysteine peptide fold change (10 µM) | probe-labelled cysteine peptide fold change (50 µM)
43 | CYC1_P08574_219_HGGEDYVFSLLTGYCEPPTGVSLR (UniProt P08574) | 0.111 | 0.164
44 | DCAF8_Q5TAQ9_483_GGVVNCLEPHPHLPVLATSGLDHDVK (UniProt Q5TAQ9) | -0.0398 | -0.0215
45 | DCAF13_Q9NV06_190_TNPICSMTWGFDSISSVK (UniProt Q9NV06) | 0.052 | -0.112
46 | CYFIP1_Q7L576_1124_GPLPSNGVMHVDECVEFHR (UniProt Q7L576) | 0.0955 | 0.0571
47 | CTSA_P10619_241_LWSSLQTHCCSQNK (UniProt P10619) | -0.0187 | -0.112
48 | DBNL_Q9UJU6-3_256_NEQGSTCASLQESAVHPR (UniProt Q9UJU6) | -0.0708 | -0.219
49 | CUL4A_Q13619_289_LEEEGDRVITYLDHSTQKPLIACVEK (UniProt Q13619) | -0.292 | -0.273
50 | DBNL_Q9UJU6_127_AEEDVEPECIMEK (UniProt Q9UJU6) | 0.0187 | -0.0226
51 | CTSB_P07858_108_EIRDQGSCGSCWAFGAVEAISDR (UniProt P07858) | -0.192 | -0.175
52 | CUL9_Q8IWT3_1725_CLPTEFCDALDR (UniProt Q8IWT3) | -0.00954 | 0.182
53 | DACH1_Q9UI36_279_DFETLYNDCTNASSR (UniProt Q9UI36) | 0.337 | 0.141
54 | DCLRE1C_Q96SD1_61_VYLYCSPVTK (UniProt Q96SD1) | 0.00171 | 0.113
55 | CTSG_P08311_207_GDSGGPLLCNNVAHGIVSYGK (UniProt P08311) | -0.0408 | -0.112
56 | DCAF1_Q9Y4B6_69_ADPECMLGHLLR (UniProt Q9Y4B6) | 0.0618 | -0.0373
57 | DAZAP1_Q96EP5_39_SYFSQYGEVVDCVIMK (UniProt Q96EP5) | 0.1 | 0.139
58 | DCTN4_Q9UJW0_280_CEHNLSKPEFNPTSIK (UniProt Q9UJW0) | 0.246 | 0.175
59 | DCAF1_Q9Y4B6_1070_YGGVDGGCFDR (UniProt Q9Y4B6) | -0.134 | -0.244
60 | DBR1_Q9UK59_36+37_GPGPVDLLLCCGDFQAVR (UniProt Q9UK59) | -0.111 | 0.0553
61 | CXXC1_Q9P0U4_420_IQQWQQSPCIAEEHGKK (UniProt Q9P0U4) | -0.0635 | -0.133
62 | DCTN6_O00399_18_IAPGAVVCVESEIR (UniProt O00399) | 0.116 | -0.0906
63 | CYTH1_Q15438_323_EVEDSKKPNCFELYIPDNK (UniProt Q15438) | -0.213 | -0.14

Row | Target | probe-labelled cysteine peptide fold change (10 µM) | probe-labelled cysteine peptide fold change (50 µM)
64 | DAZAP1_Q96EP5_63_DPNCVGTVLASR (UniProt Q96EP5) | 0.186 | 0.402
65 | DARS2_Q6PI48_202_MREYLCNLHGFVDIETPTLFK (UniProt Q6PI48) | -0.00596 | 0.0625
66 | DCAF8_Q5TAQ9_256_FLPNSGDSTLAMCAR (UniProt Q5TAQ9) | -0.0559 | -0.0159
67 | CUL1_Q13616_149_ECDEGR (UniProt Q13616) | 0.194 | 0.0376
68 | CTSB_P07858_105+108_EIRDQGSCGSCWAFGAVEAISDR (UniProt P07858) | 0.0411 | -0.0918
69 | CUTC_Q9NTM9_223_ILEGSGATEFHCSAR (UniProt Q9NTM9) | 0.176 | 0.0418
70 | DCPS_Q96C86_222_WNQQQLDDLYLIAICHR (UniProt Q96C86) | -0.0383 | 0.108
71 | CTR9_Q6PD62_533_EHPNYVDCYLR (UniProt Q6PD62) | 0.0383 | 0.104
72 | CTTNBP2NL_Q9P2B4_312_GTATEPLMLMSVFCQTESFPAER (UniProt Q9P2B4) | 0.153 | -0.18
73 | CTSD_P07339_286_AYWQVHLDQVEVASGLTLCK (UniProt P07339) | 0.06 | -0.0729
74 | CYB5R4_Q7L1T6_278_CQLISK (UniProt Q7L1T6) | 0.02 | -0.000551
75 | CTPS1_P17812_362_LCSAHGVLVPGGFGVR (UniProt P17812) | 0.0757 | 0.0119
76 | CWF19L1_Q69YN2_426_SHHLQLQVIPVPISCSTTDDIK (UniProt Q69YN2) | 0.261 | -0.35
77 | DCAF12_Q5T6F0_253_EDTNPDNCK (UniProt Q5T6F0) | -0.0756 | -0.0409
78 | CTPS1_P17812_30_SCGLHVTSIK (UniProt P17812) | 0.184 | 0.0551
79 | CTSB_P07858_59_LCGTFLGGPKPPQR (UniProt P07858) | 0.0374 | 0.098
80 | CYB5R3_P00387_284_DHLPPPEEEPLVLMCGPPPMIQYACLPNLDHVGHPTER (UniProt P00387) | 0.0327 | -0.15
81 | CXorf38_Q8TB03_12_LNCAEYK (UniProt Q8TB03) | -0.129 | -0.036
82 | CUL4A_Q13619_94_YNLEELYQAVENLCSHK (UniProt Q13619) | -0.12 | -0.0336
83 | DCAF5_Q96JK2_349_FNPHTYMICSSGVEK (UniProt Q96JK2) | 0.128 | -0.125
